Experimental findings from article doi:10.1101/2025.10.09.681391 are described below.

By UniProt entry, the sequences of proteins in these tests, tags left out. Where a name states a change or a piece, a line headed by the entry shows the natural chain unless it says otherwise. Chains listed by the source or under a name are the forms on record and can include a tag or linker. Residues count along the entry.
UniProt P46531: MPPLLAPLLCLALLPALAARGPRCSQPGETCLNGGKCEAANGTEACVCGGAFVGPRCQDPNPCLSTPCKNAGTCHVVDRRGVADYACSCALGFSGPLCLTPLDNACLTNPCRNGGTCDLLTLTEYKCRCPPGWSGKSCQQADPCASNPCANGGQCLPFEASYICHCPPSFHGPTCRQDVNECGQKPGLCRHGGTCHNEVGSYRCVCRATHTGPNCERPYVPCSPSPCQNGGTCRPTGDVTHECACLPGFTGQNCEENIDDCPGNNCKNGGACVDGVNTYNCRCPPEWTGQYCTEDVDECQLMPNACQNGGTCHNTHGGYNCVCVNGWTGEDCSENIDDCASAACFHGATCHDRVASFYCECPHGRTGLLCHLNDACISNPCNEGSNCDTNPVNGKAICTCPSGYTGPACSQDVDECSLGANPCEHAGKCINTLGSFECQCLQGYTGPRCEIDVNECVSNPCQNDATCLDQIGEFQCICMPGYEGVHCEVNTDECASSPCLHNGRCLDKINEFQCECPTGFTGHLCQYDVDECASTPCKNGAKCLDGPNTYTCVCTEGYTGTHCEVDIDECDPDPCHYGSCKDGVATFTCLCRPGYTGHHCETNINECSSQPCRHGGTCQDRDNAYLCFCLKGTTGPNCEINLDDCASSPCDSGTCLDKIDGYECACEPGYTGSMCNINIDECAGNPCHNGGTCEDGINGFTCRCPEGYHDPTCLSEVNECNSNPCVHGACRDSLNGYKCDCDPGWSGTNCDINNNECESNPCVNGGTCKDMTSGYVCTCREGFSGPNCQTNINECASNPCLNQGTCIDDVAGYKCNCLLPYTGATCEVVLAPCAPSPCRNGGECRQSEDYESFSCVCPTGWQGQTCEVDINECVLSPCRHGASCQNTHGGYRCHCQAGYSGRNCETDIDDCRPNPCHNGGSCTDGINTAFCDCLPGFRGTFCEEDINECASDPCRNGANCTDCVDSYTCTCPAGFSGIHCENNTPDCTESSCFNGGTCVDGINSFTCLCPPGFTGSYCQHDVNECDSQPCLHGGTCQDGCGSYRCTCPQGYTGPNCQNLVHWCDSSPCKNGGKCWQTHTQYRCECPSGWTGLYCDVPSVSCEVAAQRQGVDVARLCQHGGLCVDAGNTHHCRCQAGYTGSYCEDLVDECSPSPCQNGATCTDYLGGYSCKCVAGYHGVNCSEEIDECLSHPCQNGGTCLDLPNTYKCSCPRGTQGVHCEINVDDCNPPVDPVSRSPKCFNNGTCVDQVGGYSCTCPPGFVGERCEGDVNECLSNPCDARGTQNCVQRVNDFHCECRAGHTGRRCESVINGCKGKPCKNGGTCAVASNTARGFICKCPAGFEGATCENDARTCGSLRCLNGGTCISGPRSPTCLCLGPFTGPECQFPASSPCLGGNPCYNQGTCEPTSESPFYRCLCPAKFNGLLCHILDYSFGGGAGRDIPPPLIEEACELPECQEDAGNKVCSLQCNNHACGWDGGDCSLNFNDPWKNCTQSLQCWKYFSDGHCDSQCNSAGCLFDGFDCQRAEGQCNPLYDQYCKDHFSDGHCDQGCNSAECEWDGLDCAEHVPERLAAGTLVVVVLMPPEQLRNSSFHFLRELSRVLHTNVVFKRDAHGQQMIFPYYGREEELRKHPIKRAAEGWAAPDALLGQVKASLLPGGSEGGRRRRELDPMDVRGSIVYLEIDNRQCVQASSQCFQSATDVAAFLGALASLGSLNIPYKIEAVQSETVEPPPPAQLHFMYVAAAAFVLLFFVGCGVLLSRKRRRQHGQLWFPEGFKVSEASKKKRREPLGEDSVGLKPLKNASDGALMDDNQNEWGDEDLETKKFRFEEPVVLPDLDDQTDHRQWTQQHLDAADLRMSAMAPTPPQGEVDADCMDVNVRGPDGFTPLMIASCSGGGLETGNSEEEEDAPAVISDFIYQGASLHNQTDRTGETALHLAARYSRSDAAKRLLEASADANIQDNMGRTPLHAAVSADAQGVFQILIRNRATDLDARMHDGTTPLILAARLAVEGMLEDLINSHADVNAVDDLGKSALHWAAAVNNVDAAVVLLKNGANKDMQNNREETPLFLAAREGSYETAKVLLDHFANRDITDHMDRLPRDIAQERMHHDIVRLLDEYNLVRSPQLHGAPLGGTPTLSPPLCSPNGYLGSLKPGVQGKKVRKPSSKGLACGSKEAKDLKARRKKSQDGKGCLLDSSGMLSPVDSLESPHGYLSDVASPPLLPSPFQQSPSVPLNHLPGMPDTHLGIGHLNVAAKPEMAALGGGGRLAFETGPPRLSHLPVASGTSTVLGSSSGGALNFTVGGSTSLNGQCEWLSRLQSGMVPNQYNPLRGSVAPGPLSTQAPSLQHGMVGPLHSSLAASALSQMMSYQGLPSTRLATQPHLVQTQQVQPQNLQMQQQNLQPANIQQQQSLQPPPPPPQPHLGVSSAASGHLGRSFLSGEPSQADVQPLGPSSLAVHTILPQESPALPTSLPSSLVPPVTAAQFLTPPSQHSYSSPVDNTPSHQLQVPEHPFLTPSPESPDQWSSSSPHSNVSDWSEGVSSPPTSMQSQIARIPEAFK
NICD1 (804 aa) tagged with 1xFLAG: residues 1753-2555 of P46531
UniProt Q04721, residues 26-1677: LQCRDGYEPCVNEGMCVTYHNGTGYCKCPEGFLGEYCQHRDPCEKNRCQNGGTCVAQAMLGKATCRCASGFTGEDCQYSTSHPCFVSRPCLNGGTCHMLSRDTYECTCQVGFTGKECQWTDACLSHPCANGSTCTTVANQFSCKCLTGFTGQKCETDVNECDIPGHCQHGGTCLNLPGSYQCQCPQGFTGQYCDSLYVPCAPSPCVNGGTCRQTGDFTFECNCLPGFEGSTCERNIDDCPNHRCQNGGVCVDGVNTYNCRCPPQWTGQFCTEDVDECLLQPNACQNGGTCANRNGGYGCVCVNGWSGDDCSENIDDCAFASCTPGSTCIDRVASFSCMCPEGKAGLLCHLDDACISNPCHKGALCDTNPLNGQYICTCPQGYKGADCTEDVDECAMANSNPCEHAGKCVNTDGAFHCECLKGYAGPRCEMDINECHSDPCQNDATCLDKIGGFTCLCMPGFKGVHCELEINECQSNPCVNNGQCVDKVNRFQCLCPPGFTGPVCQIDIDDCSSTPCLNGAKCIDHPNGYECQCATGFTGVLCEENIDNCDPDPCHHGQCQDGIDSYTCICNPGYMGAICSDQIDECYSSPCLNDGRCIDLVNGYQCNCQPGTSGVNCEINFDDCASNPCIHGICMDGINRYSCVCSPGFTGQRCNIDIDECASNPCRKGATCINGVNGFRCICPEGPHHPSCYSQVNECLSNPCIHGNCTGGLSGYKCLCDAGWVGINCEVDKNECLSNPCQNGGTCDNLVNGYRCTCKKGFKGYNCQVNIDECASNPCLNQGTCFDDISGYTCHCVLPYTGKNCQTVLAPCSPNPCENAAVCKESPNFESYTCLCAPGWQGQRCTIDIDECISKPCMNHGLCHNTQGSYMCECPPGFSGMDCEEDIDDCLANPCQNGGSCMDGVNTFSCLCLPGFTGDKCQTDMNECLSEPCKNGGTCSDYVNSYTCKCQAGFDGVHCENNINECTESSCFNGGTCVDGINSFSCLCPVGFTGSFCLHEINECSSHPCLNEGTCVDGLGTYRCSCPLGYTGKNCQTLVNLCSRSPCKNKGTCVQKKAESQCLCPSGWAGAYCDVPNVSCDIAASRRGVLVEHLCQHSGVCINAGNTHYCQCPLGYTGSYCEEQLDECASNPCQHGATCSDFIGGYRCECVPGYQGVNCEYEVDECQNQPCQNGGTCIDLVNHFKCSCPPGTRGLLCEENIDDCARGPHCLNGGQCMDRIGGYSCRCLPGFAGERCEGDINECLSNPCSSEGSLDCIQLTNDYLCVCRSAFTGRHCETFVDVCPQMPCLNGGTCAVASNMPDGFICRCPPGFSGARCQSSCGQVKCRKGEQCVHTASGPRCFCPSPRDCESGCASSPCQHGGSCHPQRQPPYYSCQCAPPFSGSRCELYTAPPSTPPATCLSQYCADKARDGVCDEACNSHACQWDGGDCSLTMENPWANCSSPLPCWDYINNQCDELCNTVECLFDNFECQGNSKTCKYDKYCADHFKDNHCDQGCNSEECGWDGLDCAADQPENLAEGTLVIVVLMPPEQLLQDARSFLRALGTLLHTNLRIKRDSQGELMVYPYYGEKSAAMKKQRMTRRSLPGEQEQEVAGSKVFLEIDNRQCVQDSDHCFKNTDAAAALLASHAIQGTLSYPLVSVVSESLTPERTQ
PAX6(b)-GFP (P26367-2, form named): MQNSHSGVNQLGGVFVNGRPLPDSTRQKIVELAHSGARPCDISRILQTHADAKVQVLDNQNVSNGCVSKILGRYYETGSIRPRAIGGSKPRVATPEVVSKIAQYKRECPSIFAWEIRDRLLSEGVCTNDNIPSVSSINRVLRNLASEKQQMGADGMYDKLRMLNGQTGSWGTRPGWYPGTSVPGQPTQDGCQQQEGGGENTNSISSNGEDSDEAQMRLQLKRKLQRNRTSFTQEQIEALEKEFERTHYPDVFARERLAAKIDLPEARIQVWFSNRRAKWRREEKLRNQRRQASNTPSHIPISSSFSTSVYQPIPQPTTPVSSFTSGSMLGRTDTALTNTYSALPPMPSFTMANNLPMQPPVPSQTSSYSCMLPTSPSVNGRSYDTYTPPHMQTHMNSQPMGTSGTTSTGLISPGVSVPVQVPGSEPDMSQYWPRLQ

No constants are given. Whether binding was seen depends on the method and setting. Binding seen in cells or lysates may run through a third protein. Some binding calls cover weakened binding; strength is not graded here.

Test [1] has as its target T1, full-length human CNTN6-3xHA (human) (UniProt Q9UQ52).
T1 sequence: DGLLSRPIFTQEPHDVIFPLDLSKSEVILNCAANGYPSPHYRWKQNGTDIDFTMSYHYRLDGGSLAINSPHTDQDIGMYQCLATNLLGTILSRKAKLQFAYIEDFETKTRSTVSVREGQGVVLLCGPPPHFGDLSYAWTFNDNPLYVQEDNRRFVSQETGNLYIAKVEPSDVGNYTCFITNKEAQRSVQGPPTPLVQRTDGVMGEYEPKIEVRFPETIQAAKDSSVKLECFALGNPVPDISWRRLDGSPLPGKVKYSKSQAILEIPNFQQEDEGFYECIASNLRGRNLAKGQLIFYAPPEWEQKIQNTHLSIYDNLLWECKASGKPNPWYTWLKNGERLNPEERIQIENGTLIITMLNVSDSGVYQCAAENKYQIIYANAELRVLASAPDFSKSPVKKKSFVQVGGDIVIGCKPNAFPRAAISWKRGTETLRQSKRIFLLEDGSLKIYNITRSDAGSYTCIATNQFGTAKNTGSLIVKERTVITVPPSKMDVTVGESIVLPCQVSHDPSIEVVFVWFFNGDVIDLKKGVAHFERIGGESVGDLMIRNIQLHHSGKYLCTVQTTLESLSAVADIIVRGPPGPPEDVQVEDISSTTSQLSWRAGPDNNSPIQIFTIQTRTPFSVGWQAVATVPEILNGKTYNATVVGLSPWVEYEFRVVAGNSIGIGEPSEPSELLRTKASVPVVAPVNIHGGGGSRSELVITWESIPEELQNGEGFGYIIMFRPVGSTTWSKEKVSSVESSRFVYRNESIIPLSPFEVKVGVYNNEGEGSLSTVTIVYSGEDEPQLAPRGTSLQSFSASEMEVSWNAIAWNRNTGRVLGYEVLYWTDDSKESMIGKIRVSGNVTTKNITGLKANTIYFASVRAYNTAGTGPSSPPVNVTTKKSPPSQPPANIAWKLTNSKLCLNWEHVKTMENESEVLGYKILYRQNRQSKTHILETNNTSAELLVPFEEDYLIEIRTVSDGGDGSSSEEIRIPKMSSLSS
Briefly: co-IP.

Test [2] concerns the target NICD1 (804 aa) tagged with 1xFLAG (human) (UniProt P46531). Nature of the test: co-IP.

With “FLAG-tagged NOTCH1 extracellular domain (from UniProt P46531 19-1796) (domain or fragment)”, in test [1], the binding entry is given as “binds”.
Turning to “FLAG-tagged NOTCH2 extracellular domain (from UniProt Q04721 26-1677) (domain or fragment)”, the binding result in test [1] is reported as “binds”.
As to “PAX6(a)-GFP (from UniProt P26367-1 1-422)”, the binding result in test [2] was “binds”.
For “PAX6(b)-GFP (from UniProt P26367-2 1-436)”, the binding result in test [2] is “binds”.
